According to patent US20030162221A1:
These are yes or no findings as the source states them, for the method shown. Binding seen in cells or lysates may run through a third protein. Some results given as binding are weak or reduced against the parent protein; the word gives no strength. Tags and fused reporters may be left off the sequences shown.

Sequences of proteins named here, by UniProt entry; tags and fusion partners are left off.
UniProt P32598: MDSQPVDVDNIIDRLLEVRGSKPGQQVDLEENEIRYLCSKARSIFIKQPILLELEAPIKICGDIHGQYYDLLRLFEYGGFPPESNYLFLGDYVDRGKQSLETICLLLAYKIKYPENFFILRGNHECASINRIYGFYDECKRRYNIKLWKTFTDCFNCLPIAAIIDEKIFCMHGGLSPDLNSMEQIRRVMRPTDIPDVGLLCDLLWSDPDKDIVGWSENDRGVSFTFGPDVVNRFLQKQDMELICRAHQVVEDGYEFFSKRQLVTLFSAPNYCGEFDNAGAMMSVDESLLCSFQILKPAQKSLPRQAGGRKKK

Columns and labels:
[1] = target: T1, Reg1 (Saccharomyces cerevisiae) (UniProt Q00816); assay: anti-FLAG co-IP, LC-MS/MS
T1 sequence (looked up): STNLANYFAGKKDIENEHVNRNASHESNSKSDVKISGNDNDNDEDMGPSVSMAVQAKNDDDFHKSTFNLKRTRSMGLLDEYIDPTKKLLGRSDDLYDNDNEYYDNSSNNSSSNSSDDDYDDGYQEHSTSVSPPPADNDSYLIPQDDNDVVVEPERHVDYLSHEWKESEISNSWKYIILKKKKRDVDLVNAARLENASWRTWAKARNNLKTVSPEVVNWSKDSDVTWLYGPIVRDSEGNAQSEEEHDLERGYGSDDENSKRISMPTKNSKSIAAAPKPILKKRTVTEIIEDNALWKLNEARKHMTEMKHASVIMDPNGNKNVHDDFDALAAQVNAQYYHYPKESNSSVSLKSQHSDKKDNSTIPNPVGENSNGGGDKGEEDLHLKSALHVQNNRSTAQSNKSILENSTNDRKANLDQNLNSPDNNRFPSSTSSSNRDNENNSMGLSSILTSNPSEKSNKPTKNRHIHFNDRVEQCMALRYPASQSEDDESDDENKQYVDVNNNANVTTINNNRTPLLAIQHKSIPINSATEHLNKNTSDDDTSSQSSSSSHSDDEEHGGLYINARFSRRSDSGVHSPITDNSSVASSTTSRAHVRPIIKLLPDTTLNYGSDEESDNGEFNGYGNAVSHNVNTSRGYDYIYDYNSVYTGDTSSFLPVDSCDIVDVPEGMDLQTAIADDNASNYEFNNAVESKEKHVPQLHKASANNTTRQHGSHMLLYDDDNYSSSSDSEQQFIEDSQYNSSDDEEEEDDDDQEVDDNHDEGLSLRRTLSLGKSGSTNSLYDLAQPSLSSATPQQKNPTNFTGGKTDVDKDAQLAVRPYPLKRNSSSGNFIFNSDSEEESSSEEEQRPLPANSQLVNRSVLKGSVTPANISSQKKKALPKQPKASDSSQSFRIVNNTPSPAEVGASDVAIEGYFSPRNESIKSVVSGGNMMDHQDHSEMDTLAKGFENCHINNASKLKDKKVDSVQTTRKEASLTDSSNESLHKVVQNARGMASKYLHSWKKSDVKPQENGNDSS

[2] = target: T2, Sds22 (Saccharomyces cerevisiae) (UniProt P36047); assay: anti-FLAG co-IP, LC-MS/MS
T2 sequence (looked up): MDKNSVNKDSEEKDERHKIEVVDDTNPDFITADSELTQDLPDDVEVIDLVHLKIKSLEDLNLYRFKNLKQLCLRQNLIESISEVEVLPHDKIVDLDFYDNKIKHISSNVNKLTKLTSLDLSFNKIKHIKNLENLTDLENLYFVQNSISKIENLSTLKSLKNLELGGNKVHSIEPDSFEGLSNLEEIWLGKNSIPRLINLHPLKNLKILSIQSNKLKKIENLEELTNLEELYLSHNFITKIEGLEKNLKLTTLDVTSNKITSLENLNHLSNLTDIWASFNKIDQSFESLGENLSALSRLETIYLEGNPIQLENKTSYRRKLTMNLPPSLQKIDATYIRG

[3] = target: T3, Ygr103w (Saccharomyces cerevisiae) (UniProt P53261); assay: anti-FLAG co-IP, LC-MS/MS
T3 sequence (looked up): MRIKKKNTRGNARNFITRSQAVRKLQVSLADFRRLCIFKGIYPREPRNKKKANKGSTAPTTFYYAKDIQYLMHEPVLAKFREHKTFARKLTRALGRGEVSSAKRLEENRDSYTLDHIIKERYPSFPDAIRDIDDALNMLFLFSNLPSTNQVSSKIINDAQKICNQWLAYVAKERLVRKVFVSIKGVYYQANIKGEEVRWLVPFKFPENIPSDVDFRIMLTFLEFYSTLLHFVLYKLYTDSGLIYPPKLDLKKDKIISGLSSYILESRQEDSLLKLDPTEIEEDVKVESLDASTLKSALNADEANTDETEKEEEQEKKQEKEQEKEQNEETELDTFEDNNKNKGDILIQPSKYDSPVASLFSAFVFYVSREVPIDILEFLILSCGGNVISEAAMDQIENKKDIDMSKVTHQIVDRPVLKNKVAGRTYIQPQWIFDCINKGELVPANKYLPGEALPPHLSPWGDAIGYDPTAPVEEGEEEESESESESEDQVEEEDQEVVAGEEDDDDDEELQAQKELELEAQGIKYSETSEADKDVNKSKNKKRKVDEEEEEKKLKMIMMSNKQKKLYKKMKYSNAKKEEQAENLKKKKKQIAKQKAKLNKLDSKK

[4] = target: T4, Ytm1 (Saccharomyces cerevisiae) (UniProt Q12024); assay: anti-FLAG co-IP, LC-MS/MS
T4 sequence (looked up): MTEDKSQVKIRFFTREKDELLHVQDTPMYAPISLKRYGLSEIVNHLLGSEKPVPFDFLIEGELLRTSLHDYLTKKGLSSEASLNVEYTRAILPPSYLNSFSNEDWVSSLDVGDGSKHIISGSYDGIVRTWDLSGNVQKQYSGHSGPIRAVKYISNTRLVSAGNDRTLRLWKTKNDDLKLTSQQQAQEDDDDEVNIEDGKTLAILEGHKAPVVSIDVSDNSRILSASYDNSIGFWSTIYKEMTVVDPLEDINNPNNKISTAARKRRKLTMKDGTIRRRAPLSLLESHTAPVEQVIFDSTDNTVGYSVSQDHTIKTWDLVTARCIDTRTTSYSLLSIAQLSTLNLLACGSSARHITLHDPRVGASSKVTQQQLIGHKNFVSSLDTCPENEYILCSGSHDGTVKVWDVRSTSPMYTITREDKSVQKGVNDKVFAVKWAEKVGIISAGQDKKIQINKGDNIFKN

[5] = target: T5, Gip2 (Saccharomyces cerevisiae) (UniProt P40036); assay: anti-FLAG co-IP, LC-MS/MS; bait Gip2 by Table 2
T5 sequence (looked up): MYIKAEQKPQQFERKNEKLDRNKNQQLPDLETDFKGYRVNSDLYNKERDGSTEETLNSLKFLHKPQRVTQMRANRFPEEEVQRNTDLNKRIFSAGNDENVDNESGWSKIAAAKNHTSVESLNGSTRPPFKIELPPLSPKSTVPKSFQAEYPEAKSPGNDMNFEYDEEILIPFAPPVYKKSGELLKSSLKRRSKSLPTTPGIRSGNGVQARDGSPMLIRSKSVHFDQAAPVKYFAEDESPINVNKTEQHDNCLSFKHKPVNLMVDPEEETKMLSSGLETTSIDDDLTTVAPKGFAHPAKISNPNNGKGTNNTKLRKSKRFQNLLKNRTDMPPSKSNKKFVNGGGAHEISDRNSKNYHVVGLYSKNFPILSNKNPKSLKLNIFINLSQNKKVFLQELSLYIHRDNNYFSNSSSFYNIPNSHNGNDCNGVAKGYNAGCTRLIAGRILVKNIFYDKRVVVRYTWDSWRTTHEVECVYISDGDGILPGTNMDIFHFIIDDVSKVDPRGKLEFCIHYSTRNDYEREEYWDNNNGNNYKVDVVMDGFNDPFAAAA

binding [1]: binds
binding [2]: binds
binding [3]: binds
binding [4]: binds
binding [5]: binds
Substance: Glc7 (from UniProt P32598 1-312)
